Results on four compounds are retold here after US5462848A, “Color photographic materials including magenta coupler, inhibitor-releasing coupler and carbonamide compound, and methods” (Eastman Kodak Company, priority 1993, dated 1995).

Data set [1] can be described thus: Photographic gamma (coupler activity) from plots of status M green density versus exposure. How it is done:
(§1) Dispersions of couplers M1 and M2 were prepared in comparative coupler solvents S1 and S2 and in a carbonamide coupler solvent of this invention, C1. The weight ratio of coupler:solvent was 1:1. Dispersions were prepared by dissolving the coupler in a 1:3 mixture of coupler solvent plus cyclohexanone used as an auxiliary solvent. This mixture was then added to an aqueous solution of gelatin and ALKANOL XC surfactant. The two-phase mixture was passed through a colloid mill to disperse the coupler-containing oil phase in the aqueous phase in the form of small particles. The dispersion was then chilled, noodled and washed to remove the auxiliary cyclohexanone solvent. The resulting dispersions contained approximately 2% by weight of coupler and 6% by weight of gelatin.
(§2) The dispersions were coated on a transparent support at a coupler laydown of 0.54 mmole/m^2 together with a silver bromoiodide emulsion at a silver laydown of 1.08 g/m^2 in the following format:
(§3) The BVSME hardner is of the formula (CH2 =CHSO2 CH2)2 --O. Coatings were then exposed and subjected to variants of the KODAK FLEXICOLOR (C-41) process described below. The C-41 process is described in British Journal of Photography Annual, 1988, p-p. 196-198, discussed above. A first set of films was subjected to the standard C-41 process with no stop bath between the development and bleach steps (process A). A second set of films was also processed with out a stop bath but with the FLEXICOLOR bleach pH adjusted to 6.0 instead of the normal 5.25 (process B). This was intended to simulate behavior in a "seasoned" bleach with increased pH due to carry-over of base from the developer solution. A third set of films was processed with an acetic acid stop bath between the development and bleach steps to eliminate any continued coupling (process C).
(§4) The differences in Dmin values resulting from process A and process C or process B and process C are measures of the continued coupling at bleach pH values of 5.25 and 6.0, respectively. Photographic gamma values, which serve as a measure of coupler activity, were obtained from plots of status M green density versus exposure for the various film samples subjected to process A. These gamma values are also listed in Table II.
(§5) Dispersions of the pyrazolone magenta dye-forming coupler M2 were prepared in a mixture of S1 and aniline A1 (shown below) and in C5 by procedures similar to those described in Example 2. [drawing 11] An M2:S1:A1 weight ratio of 1:0.75:0.25 was used, and the M2:C5 weight ratio was 1:1. These dispersions were prepared without and with the DIR, D1, added at a M2:D1 weight ratio of 1:0.045. The dispersions were coated on a transparent sup-port at a coupler laydown of 0.54 mmole/m^2 together with a silver bromoiodide emulsion at a silver laydown of 1.08 g/m^2 in a format similar to that of Example 2. Hardened coatings were exposed and processed using the procedures described in Example 2. The differences in Dmin values obtained with process B (Bleach pH=6.0, no stop bath) versus process C (Bleach pH=5.25, with stop bath), which are measures of continued coupling, are listed in Table III.
(§6) Dispersions of pyrazolone magenta dye-forming couplers M3 and M4 were prepared in combination with coupler solvents S1 and C5, with and without DIR coupler D1. The ratio of the pyrazolone coupler to the coupler solvent was 1:1. These dispersions were coated on a transparent support at a coupler laydown of 0.54 mmole/m^2, together with a silver bromoiodide emulsion at a silver laydown of 1.08 g/m^2, as in Example 2. The differences in Dmin values obtained in process A (Bleach pH=5.25, no stop bath) and in process B (Bleach pH=6.0, no stop bath) and process C are listed in Table IV. Larger differences are indicative of higher undesirable continued coupling.
(§7) Dispersions of the pyrazolone magenta dye-forming couplers M3 and M8, together with S1 and D1 or with C1 and D1, were prepared. […]

Data set [2] in a line: Continued coupling: difference in Dmin between processes without stop bath (A, B) and with stop bath (C). The settings on record: for Delta Dmin Process A-C: bleach pH 5.25; for Delta Dmin Process B-C: bleach pH 6.0. How it is done:
as §1, §2, §3, §4, §5, §6, §7

Setting [3] is: Table II, coupler solvent C1(1.0).
Where [4] appears, read: Table II, coupler solvent S1(1.0).
Where [5] appears, read: Table II, coupler solvent S2(1.0).
The mark [6] stands for this setting: Table IV, C5(1.0), DIR coupler D1(0.04).
The mark [7] stands for this setting: Table IV, C5(1.0), no DIR coupler.
The mark [8] stands for this setting: Table IV, S1(1.0), DIR coupler D1(0.04).
Setting [9] is: Table IV, S1(1.0), no DIR coupler.
Where [10] appears, read: Table V, C1(1.0), DIR coupler D1 0.022 g/m^2 (0.040 with M3, 0.043 with M8).
[11] abbreviates: Table V, S1(1.0), DIR coupler D1 0.022 g/m^2 (0.040 with M3, 0.043 with M8).

Take `CCCCCCCCCCCCNS(=O)(=O)c1ccc(NC2=NN(c3c(Cl)cc(Cl)cc3Cl)C(=O)C2Sc2cc(C(C)(C)CC(C)(C)C)ccc2OCCCC)c(Cl)c1` (centres unmarked) [M1]: the Gamma in data set [1] (Table II, coupler solvent C1(1.0), process A) amounted to 1.84; in data set [1] (Table II, coupler solvent S1(1.0), process A), 2.10; in data set [1] (Table II, coupler solvent S2(1.0), process A) it was 2.41. The “Delta Dmin Process A-C” value in data set [2] (setting [3]) was 0.01; in data set [2] (setting [4]), 0.04; in data set [2] (setting [5]) it was 0.10. Moreover, the “Delta Dmin Process B-C” value is recorded as 0.03 in data set [2] (setting [3]), 0.19 in data set [2] (setting [4]) and 0.33 in data set [2] (setting [5]).

Turning to `CCCCCCCCCCCCCC(=O)Nc1ccc(Cl)c(NC2=NN(c3c(Cl)cc(Cl)cc3Cl)C(=O)C2Sc2ccccc2NC(=O)C(CC)Oc2ccc(C(C)(C)CC)cc2C(C)(C)CC)c1` (centres unmarked) [M3], the Gamma amounted to 1.60 in data set [1] (setting [6]); 2.70 in data set [1] (setting [7]); 1.52 in data set [1] (setting [8]); 2.65 in data set [1] (setting [9]); 1.73 in data set [1] (setting [10]); 1.63 in data set [1] (setting [11]). The “Delta Dmin Process A-C” value in data set [2] (setting [6]) was determined as 0.05; in data set [2] (setting [7]) it was 0.04; in data set [2] (setting [8]), 0.11; in data set [2] (setting [9]) it was 0.09. The “Delta Dmin Process B-C” value in data set [2] (setting [6]) amounted to 0.13; in data set [2] (setting [7]), 0.13; in data set [2] (setting [8]), 0.30; in data set [2] (setting [9]), 0.26; in data set [2] (setting [10]), 0.13; in data set [2] (setting [11]), 0.20.

Take `CCCCCCCCCCCCNS(=O)(=O)c1ccc(NC2=NN(c3c(Cl)cc(Cl)cc3Cl)C(=O)C2Sc2ccccc2NC(=O)C(CC)Oc2ccc(C(C)(C)CC)cc2C(C)(C)CC)c(Cl)c1` (centres unmarked) [M4]: the Gamma in data set [1] (setting [6]) is 1.88; in data set [1] (setting [7]), 3.06; in data set [1] (setting [8]), 1.67; in data set [1] (setting [9]), 3.31. Moreover, the “Delta Dmin Process A-C” value was found to be 0.10 in data set [2] (setting [6]), 0.08 in data set [2] (setting [7]), 0.23 in data set [2] (setting [8]) and 0.23 in data set [2] (setting [9]). Moreover, the “Delta Dmin Process B-C” value was 0.22 in data set [2] (setting [6]), 0.20 in data set [2] (setting [7]), 0.52 in data set [2] (setting [8]) and 0.48 in data set [2] (setting [9]).

In the case of `CCCCCCCCCCCCNS(=O)(=O)c1ccc(NC2=NN(c3c(Cl)cc(Cl)cc3Cl)C(=O)C2Sc2ccccc2NC(=O)CCCCCCCCCCC)c(Cl)c1` (centres unmarked) [M8], the results for the Gamma in data set [1] (setting [10]) and in data set [1] (setting [11]) were 1.91 and 2.62, respectively. The “Delta Dmin Process B-C” value in data set [2] (setting [10]) turned out to be 0.25; in data set [2] (setting [11]) it was 0.57.
